# Out of some 340,000 compounds screened, about 170 (0.05%) were called active. This list was built around the results that the source calls inconclusive (neither active nor inactive); the mix of calls is not that of the screen. Calls follow the shape of the dose curve; as a rule, active = well fitted inhibition curve with a large enough effect in the signal ratio, with a control signal flat (not every such curve was filed as active); inconclusive = small, poorly fitted or top-dose-only effect, or effect the other way, or a change in a side signal; inactive = flat fitted curve, though single readings scatter; the % refers to the signal ratio. Where the call is inconclusive, the potency comes from a doubtful curve fit.
# Assay: qHTS Assay to Find Inhibitors of Chronic Active B-Cell Receptor Signaling;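 as to activity change, negative = inhibition: plate controls were basal doxycycline-induced cells for no effect and cells given 10 µM MG132 for full effect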
# Conditions: ABC-DLBCL IkBa-CBG/CBR reporter, luminescence ratio (green luciferase fused to IkBa over red control in TMD8 lymphoma cells), 4 h; activity change, negative = inhibition: at 46.1 µM (top of the series)
# In short: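 TMD8 ABC-DLBCL cells carrying doxycycline-inducible green luciferase fused to IkappaBalpha plus unfused red luciferase were exposed to compounds (up to 46 uM) for 4 hrs at 37C. Activity came from the overlap-corrected green/red luminescence ratio.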
# Potency is read from the fitted curve at half-maximal effect.
Compound,"activity change, negative = inhibition",Potency
Cn1c(CSc2nc3ccccc3s2)n[nH]c1=S,inconclusive: -1.99%,–
CCN1CCN(c2ccc(NC(=O)c3ccc(OC)c(S(=O)(=O)N4CCCC4)c3)cc2)CC1,inconclusive: 3.19%,–
COc1cccc(C2NC(=O)NC(C)=C2C(=O)OCC2CCCCC2)c1 (stereo not drawn),inconclusive: 9.4%,–
CCc1ccc(NC(=O)CSc2nnc(-c3ccco3)o2)cc1,inconclusive: -2.49%,–
O=C(Nc1cccc(F)c1)OC(CN1CCCCC1)C(F)(F)F (stereo not drawn),inconclusive: -7.56%,–
CC(C)CCOCC(=O)Oc1ccccc1C(=O)O,inconclusive: 3.61%,–
Cc1ccc2[nH]c(C)cc(=S)c2c1,–,"inconclusive: 35.5 µM [falling, single point]"
Cc1cccc(NS(=O)(=O)c2cccc(C(=O)NNC(=O)c3ccccc3O)c2)c1,–,"inconclusive: 18.4 µM [falling, single point]"
CC(C)c1nc2sc3c(=O)[nH]c(=S)[nH]c3c2c2c1CCC2,inconclusive: 12.3%,–
O=C(/C=C/Nc1ccc(S(=O)(=O)Nc2cnc3ccccc3n2)cc1)c1cccnc1,inconclusive: 6.21%,–
CCCN(CC(=O)Nc1ccccc1C)C(=O)CCCNC(=O)c1ccc(Cl)cc1,inconclusive: 1.54%,–
COc1cc(/C=N/Nc2nc(C)cc(=O)[nH]2)cc(OC)c1O,inconclusive: 7.15%,–
CCS(=O)(=O)c1ncc(Cl)c(C(=O)Nc2ccc(S(=O)(=O)N3CCC(C)CC3)cc2)n1,–,"inconclusive: 14.1 µM [rising, single point]"
Cc1ccc(-n2c(C)cc(/C=c3/sc4nc5ccccc5n4c3=O)c2C)cc1,inconclusive: 27.1%,–
O=C(CCC1CCCN(C(=O)c2ccc3cc[nH]c3c2)C1)N1CCN(c2ccccn2)CC1 (stereo not drawn),inactive,–
CC(C)(C)NS(=O)(=O)c1ccc(NC(=O)C2CCCCC2)cc1,inconclusive: -0.81%,–
Cc1cc(NC(=O)c2cc(-c3ccccn3)nc3ccc(Br)cc23)no1,inactive,–
Cc1[nH]c2ccccc2c1C(=O)COC(=O)CCS(=O)(=O)c1ccccc1Cl,inconclusive: -6.07%,–
O=C(Nc1ccccc1)Nc1ccc2snnc2c1,–,"inconclusive: 16.4 µM [falling, single point]"
COc1ccc(OCC(=O)NNC(=O)c2ccccn2)cc1,inactive,–
Cc1ccc(-c2onc3ccc(C(=O)/C=C/N(C)C)cc23)cc1,inconclusive: 3.9%,–

Compound,"activity change, negative = inhibition",Potency
Cc1ccc(-c2nc3ncccn3c2Nc2ccc3c(c2)OCCO3)o1,inconclusive: 8.27%,–
CCOC(=O)c1ccc(N/C=C2\CCCCC2=O)cc1,–,"inconclusive: 1.16 µM [rising, partial curve, poor fit]"
COc1ccc(C(=O)COC(=O)CCNS(=O)(=O)c2ccccc2)c(OC)c1,inconclusive: 6.36%,–
CN(/N=C/c1ccc2c(c1)OCO2)c1nc(N2CCOCC2)nc(N2CCOCC2)n1,–,"inconclusive: 35.5 µM [falling, single point]"
COc1ccccc1C(=O)NCc1nnc(SCC(=O)Nc2nccs2)n1C,–,"inconclusive: 0.0891 µM [falling, full curve, poor fit]"
C=CCSc1nc(=O)n2ccc(C)cc2n1,inconclusive: 12.9%,–
O=C(CSC1=NC(=O)C(c2ccccc2)C(=O)N1)Nc1ccccc1[N+](=O)[O-] (stereo not drawn),inconclusive: 2.24%,–
COC(=O)c1ccc(/C=N\n2c(C)nnc2C)cc1,inconclusive: -23.4%,–
CCOC(=O)Cc1cnc(NC(=O)c2ccccc2)s1,–,"inconclusive: 35.5 µM [rising, single point]"
CCN(CC)C(=O)c1[nH]cnc1C(=O)N[C@@H](Cc1ccccc1)C(=O)OCc1ccccc1,inactive,–
O=C(Nc1ccc(Br)cc1)C1CCCC1,inactive,–
O=C(c1cc(-c2ccc(F)cc2)on1)N1CCOCC1,–,"inconclusive: 20 µM [falling, partial curve]"
O=C(CN1C(=O)c2ccccc2C1=O)Nc1ccc(S(=O)(=O)N2CCOCC2)cc1,inconclusive: 7.09%,–
NNC(=O)Nc1cccc(C(F)(F)F)c1,inactive,–
Cc1c(Cl)c([N+](=O)[O-])nn1CCCC(=O)N1CCN(c2ccccc2)CC1,inactive,–
CCc1ccc(C(=O)Nc2nc(C)cs2)s1,inconclusive: -15.8%,–
COc1ccccc1/C=N/NC(=O)CN(C1=NS(=O)(=O)c2ccccc21)c1ccccc1,inconclusive: -1.6%,–
N/C(=N\OC(=O)CCC1CCCCC1)c1cccc([N+](=O)[O-])c1,inconclusive: 15.1%,–
COC(=O)c1cc(C(=O)NNC(=O)c2ccc3c(c2)OCO3)cc([N+](=O)[O-])c1,–,"inconclusive: 25.9 µM [falling, partial curve, poor fit]"
CCCCSC1=C(C#N)C(c2ccccc2C)C(C(=O)OCC)C(=O)N1 (stereo not drawn),inconclusive: 5.23%,–
Nc1ncnc(Sc2ncccn2)c1[N+](=O)[O-],–,"inconclusive: 5.62 µM [falling, single point]"

Compound,"activity change, negative = inhibition",Potency
CCOC(=O)C1=C(C)N=c2s/c(=C/c3ccc(OCC(=O)O)cc3)c(=O)n2C1c1cc(OC)c(OC)c(OC)c1 (stereo not drawn),inactive,–
Cc1cc(Nc2cccc(Cl)c2)c2ccccc2n1,inactive,–
CCCNC(=O)COc1ncnc2sccc12,inactive,–
Cc1cc(C(=O)OCC(=O)NCc2ccco2)c(C)n1-c1ccccc1,–,"inconclusive: 15.8 µM [falling, single point]"
CC1(c2ccc3c(c2)OCCO3)NC(=O)N(CC(=O)Nc2ccccc2SCC#N)C1=O (stereo not drawn),inconclusive: -7.31%,–
Cc1cc(Br)ccc1OCCCCN1CCC(C)CC1,inactive,–
O=C(Cc1ccc(S(=O)(=O)N2CCCCC2)cc1)NCc1ccc(Cl)cc1,inconclusive: -4.52%,–
CSC1=NSC2=NC(=O)/C(=C\c3cccs3)C(=N)N12,inconclusive: -18.9%,–
COc1ccc(S(=O)(=O)N(C)c2ccc(C(=O)NCCC(C)C)cc2)cc1,inconclusive: 16%,–
CCCCc1nnc(NC(=O)CCS(=O)(=O)c2ccc(Cl)cc2)s1,–,"inconclusive: 9.2 µM [falling, partial curve, poor fit]"
CCCCC(CC(O)COCCC)c1n[nH]c(=S)n1-c1ccccc1 (stereo not drawn),inactive,–
O=[N+]([O-])c1ccc(N/N=C/c2ccc[nH]2)cc1,inconclusive: 6.21%,–
CSc1ccc(/C=C(\C#N)C(=O)NC2CCCCC2C)cc1 (stereo not drawn),–,"inconclusive: 32.6 µM [falling, partial curve, poor fit]"
CC(=O)NCc1ccc(-c2csc(-c3cccs3)n2)cc1,–,"inconclusive: 22.4 µM [falling, single point]"
CCc1nccn1C(=O)c1cnn2c(C(F)F)cc(-c3ccccc3)nc12,inconclusive: 4.54%,–
O=C(COC(=O)c1c2ccccc2cc2ccccc12)Nc1ncc(C(F)(F)F)cc1Cl,–,"inconclusive: 32.6 µM [falling, single point]"
O=C(Cc1ccc(Cl)cc1)NNS(=O)(=O)c1ccc([N+](=O)[O-])cc1,inactive,–
COc1ccc(NC(=S)N(CCN(C)C)C(C)c2ccco2)cc1Cl (stereo not drawn),inactive,–
O=C(/C=C/c1cccc(Cl)c1)Nc1ccncc1,inconclusive: -15.9%,–
CC(C)c1ccc(NC(=O)c2ccccc2NC(=O)C2CCCCC2C(=O)O)cc1 (stereo not drawn),inactive,–
O=C(Nc1ccc2c(c1)OCCO2)C(=O)NC1CC1,–,"inconclusive: 35.5 µM [falling, single point]"

# Gathered by group, the compounds so far containing a COOH group (three)
Compound,"activity change, negative = inhibition",Potency
CC(C)CCOCC(=O)Oc1ccccc1C(=O)O,inconclusive: 3.61%,–
CCOC(=O)C1=C(C)N=c2s/c(=C/c3ccc(OCC(=O)O)cc3)c(=O)n2C1c1cc(OC)c(OC)c(OC)c1 (stereo not drawn),inactive,–
CC(C)c1ccc(NC(=O)c2ccccc2NC(=O)C2CCCCC2C(=O)O)cc1 (stereo not drawn),inactive,–

# The list goes on.

Compound,"activity change, negative = inhibition",Potency
CCNC(=S)NS(=O)(=O)c1ccc(CC)cc1,inactive,–
CCC(C)c1ccccc1OCCCNC1CCCC1 (stereo not drawn),inconclusive: -17.3%,–
CCn1c(C)cc(/C=C2/SC(=O)N(C(C)C(=O)OC)C2=O)c1C (stereo not drawn),inconclusive: -0.231%,–
CC1(c2ccc3c(c2)OCCO3)NC(=O)N(CC(=O)Nc2ccccc2)C1=O (stereo not drawn),inactive,–
CC1(C)Cc2c(c(N3CCOCC3)nc3snc(N)c23)CO1,inactive,–
COC(=O)Cc1cc(=O)n2[nH]c(SC)nc2n1,inconclusive: 5.67%,–
C=CCN(CC=C)C(=S)NC(=O)c1ccc([N+](=O)[O-])cc1,–,"inconclusive: 2.91 µM [falling, partial curve, poor fit]"
CCCOc1ccc(-c2nnc(-c3cccs3)o2)cc1,inconclusive: 9.81%,–
Cc1cc(C)c(NC(=O)CSc2nccn2C)c(C)c1,inconclusive: 0.651%,–
CCOc1ccccc1CN(CCc1ccc2c(c1)OCO2)Cc1ccccn1,inconclusive: -1.11%,–
Cc1ccc(C(=O)NC2(C(Cl)Cl)N=C(c3ccccc3)N=C2N)cc1 (stereo not drawn),inconclusive: 3.28%,–
O=C(CS(=O)(=O)Nc1ccc(F)cc1Cl)Nc1ccc(F)cc1Cl,inconclusive: 2.3%,–
O=C(CNS(=O)(=O)c1ccccc1)N1CCCC1,–,"inconclusive: 0.355 µM [falling, full curve, poor fit]"
CC(C)CN1CCNC(=O)C1CC(=O)NCc1cnn(-c2cccc(F)c2)c1 (stereo not drawn),inconclusive: 12.9%,–
Cc1cc(C(=O)N2CCN(c3ccc([N+](=O)[O-])cc3)CC2)c(C)o1,inactive,–
O=C(NC1CCS(=O)(=O)C1)c1cccc(S(=O)(=O)N2CCCCCC2)c1 (stereo not drawn),–,"inconclusive: 20 µM [falling, single point]"
CCCCCOC(=O)c1ccc(NC(=O)c2ccco2)cc1,inactive,–
CC1(c2ccc(OC(F)F)cc2)NC(=O)N(CC(=O)Nc2ccccc2)C1=O (stereo not drawn),–,"inconclusive: 22.4 µM [falling, single point]"
O=C1Nc2ccccc2/C1=C/c1ccc([N+](=O)[O-])cc1,–,"inconclusive: 22.4 µM [falling, partial curve, poor fit]"
CCOC(=O)Cc1cc(=O)[nH]c(/N=C(\N)Nc2ccc(C)c(C)c2)n1,inactive,–

# Reference: PubChem BioAssay AID493014 (National Center for Advancing Translational Sciences (NCATS), 2011)
